Data as given in PubChem BioAssay AID504764 (Drosophila RNAi Screening Center, 2011).
Test: 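Genes whose knock-down alters Notch-dependent transcription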 (primary screen). Cells: Drosophila Kc167 cells. Reagent: long dsRNA against Drosophila genes. Time to read-out: about 5 days (4 days dsRNA, then 24 h after transfection). Conditions: transfection of constitutively active membrane-tethered Notch lacking the extracellular domain, read 24 h later. Measured: 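Firefly luciferase from an E(spl)m3 reporter with active Notch, plus control-promoter and uninduced reporter wells for normalisation; unnormalised counts, duplicate wells a and b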. Reading the numbers: induced reporter light, run 1, well a and induced reporter light, run 1, well b: higher = more light from the Notch target reporter with active Notch; control promoter light, run 1, well a and control promoter light, run 1, well b: higher = more light from the viral control promoter (cell number, transfection, viability); uninduced reporter light, run 1, well a: higher = more light from the Notch target reporter without active Notch. Active means: 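Hit if the duplicate-averaged log2 ratio of induced to control-promoter light gives a plate-wise z beyond ±2, or induced to uninduced beyond ±1.8; weak-control or discordant-duplicate wells dropped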. Meaning of the calls: active = modifier hit (raised or lowered Notch signal); inactive = not a hit.
In all, the deposit lists about 22,000 reagents; shown is a random part of those that have a named target and a result. Over the whole deposit, 403 (1.9%) got an active call. 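Unnormalised raw counts per well; ratio z-scores behind the hit calls and whether each hit raises or lowers signal are not deposited.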 A plus sign joins genes that one reagent is predicted to hit. The record does not give: the amount of reagent.

no.	gene knocked down	dsRNA	induced reporter light, run 1, well a	induced reporter light, run 1, well b	control promoter light, run 1, well a	control promoter light, run 1, well b	uninduced reporter light, run 1, well a	Call
1	CG8155	DRSC07084	1.23e5	1.33e5	2.02e5	2.38e5	9130	inactive
2	CG15249	DRSC17978	1.30e5	1.42e5	2.22e5	2.97e5	9680	inactive
3	Ugt35E1 (UDP-glycosyltransferase family 35 member E1)	DRSC15193	70790	70805	75380	72150	4285	inactive
4	CG5386	DRSC15788	51680	42585	36620	32905	6725	inactive
5	CG8067	DRSC07065	1.40e5	1.62e5	1.36e5	1.21e5	10465	inactive
6	PIG-F (Phosphatidylinositol glycan anchor biosynthesis class F)	DRSC11069	1.59e5	1.15e5	1.20e5	88230	7045	inactive
7	CG4297	DRSC00651	1.03e5	1.08e5	1.08e5	58550	7638	inactive
8	CG6254	DRSC16002	1.25e5	1.38e5	87085	1.08e5	10760	inactive
9	cid (centromere identifier)	DRSC05429	2.38e5	2.27e5	2.87e5	2.58e5	15655	inactive
10	cid (centromere identifier)	DRSC07592	96345	95145	1.06e5	1.09e5	7855	inactive
11	mrn (marionette)	DRSC10913	1.24e5	1.29e5	82540	1.04e5	11510	inactive

3 entries from above, arranged by “control promoter light, run 1, well a”, highest first.
gene knocked down	dsRNA	induced reporter light, run 1, well a	induced reporter light, run 1, well b	control promoter light, run 1, well a	control promoter light, run 1, well b	uninduced reporter light, run 1, well a	Call
cid (centromere identifier)	DRSC05429	2.38e5	2.27e5	2.87e5	2.58e5	15655	inactive
cid (centromere identifier)	DRSC07592	96345	95145	1.06e5	1.09e5	7855	inactive
CG6254	DRSC16002	1.25e5	1.38e5	87085	1.08e5	10760	inactive

The results go on.
no.	gene knocked down	dsRNA	induced reporter light, run 1, well a	induced reporter light, run 1, well b	control promoter light, run 1, well a	control promoter light, run 1, well b	uninduced reporter light, run 1, well a	Call
12	pwn (pawn)	DRSC06035	2.25e5	1.96e5	2.50e5	2.32e5	19280	inactive
13	CG11898	DRSC14432	1.21e5	1.28e5	1.48e5	1.43e5	9660	inactive
14	chas (chascon)	DRSC19508	51575	52940	67620	67040	9055	inactive
15	chas (chascon)	DRSC19509	71465	44625	65165	55035	8455	inactive
16	NimB1 (Nimrod B1)	DRSC01880	2.25e5	2.35e5	1.97e5	1.95e5	16935	inactive
17	mbt (mushroom bodies tiny)	DRSC20348	25025	23715	25480	20660	7888	inactive
18	UGP + PGRP-LF	DRSC10418	1.65e5	1.51e5	2.34e5	2.38e5	9340	inactive
19	CG8841	DRSC07286	1.54e5	1.61e5	1.56e5	1.77e5	14965	inactive
20	Cad96Cb (Cadherin 96Cb)	DRSC14243	1.50e5	1.34e5	1.73e5	1.67e5	11025	inactive
21	Cad96Cb (Cadherin 96Cb)	DRSC14665	1.27e5	98175	1.58e5	1.83e5	11995	inactive
